Laboratory results published in patent publication US20220312762A1, “USE OF ENCAPSULATED STEROLS TO MODIFY GROWTH OF CROPS, CONTROL, AGRICULTURAL PESTS AND AS NON-TOXIC PRE-EMERGENT HERBICIDES” (The Texas A&M University System, priority 2019, published 2022).

Tested on: Arabidopsis thaliana
Test: Sterol analysis (GC-MS) of plants treated with exogenous sterol
Assay type: in vivo
Conditions: 100 μM exogenous sterol

Structure (SMILES)	total free sterols of the plants
CC(C)CCC[C@@H](C)[C@H]1CC[C@H]2[C@@H]3CC=C4C[C@@H](O)CC[C@]4(C)[C@H]3CC[C@]12C [cholesterol, Cholesterol]	decrease
CC[C@H](/C=C/[C@@H](C)[C@H]1CC[C@H]2[C@@H]3CC=C4C[C@@H](O)CC[C@]4(C)[C@H]3CC[C@]12C)C(C)C [stigmasterol]	stayed about the same
